Primary screen of a compound library

Values are the deposited “Percent Effect”, in %.
The controls that fix the scale are not given in the record; negative values are as filed.
Compounds were drawn at random from those tested, without regard to their results.
Two or more numbers in one place are separate tests of the same structure; such repeats can differ widely.
A dash means the value is not listed here; it may have been measured.

Leishmania in macrophages: 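Cell assay of Leishmania donovani living inside macrophages; the read-out is not stated. Concentration: 30 µM. The record gives no direction; compounds that gave an IC50 in retests scored well above the rest, so higher reads as stronger inhibition. Of about 69,000 compounds tested this way, about 1,000 (1.5%) reached 50% or more in at least one test.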
Toxoplasma: 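Assay of Toxoplasma gondii numbers, read through their beta-galactosidase reporter with a colour substrate. Concentration: 10 µM. The record gives no direction; the compounds picked for IC50 retests had high values, so higher reads as fewer parasites. Size under these conditions: about 67,000 compounds, about 260 of them at 50% or above in at least one test.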

| # | SMILES | Leishmania in macrophages | Toxoplasma |
|---|---|---|---|
| 1 | `Cc1nc2c(c(=O)n1C)CCN(C(=O)CCc1ccccn1)CC2` | 19.51 | -7.448 |
| 2 | `COC(=O)[C@@H]1C[C@H](NC(=O)c2cc(=O)[nH]c3ccc(C)cc23)CN1C` | 1.897 | -10.11 |
| 3 | `O=C1NCC(C(=O)Nc2ncc(Cc3ccc(F)cc3)s2)N1` (stereo not given) | 7.481 | -34.11 |
| 4 | `c1cncc(N2CCOC3(CCCN(c4nncs4)C3)C2)c1` (stereo not given) | 9.337 and 10.4 | 8.691 |
| 5 | `O=C(O)C(F)(F)F.[H][C@@]12CN(CC3CCOCC3)C[C@]1([H])C(=O)N(c1cnn(C)c1)C2` | -2.853 | -3.467 |
| 6 | `O=C(O)C(F)(F)F.O=C(c1c[nH]cn1)N1CCC(F)(F)C2(CCN(c3cnccn3)C2)C1` (stereo not given) | 10.85 and 9.792 | -6.433 |
| 7 | `CN(C)C(=O)CN1CCC2(C1)CN(CC1CCOC1)C2.O=C(O)C(F)(F)F.O=C(O)C(F)(F)F` (stereo not given) | -8.604 and 25.13 | -5.858 |
| 8 | `Cc1cnn(CC2CCCCN2Cc2nc(N)c3ccccc3n2)c1` (stereo not given) | 37.35 | - |
| 9 | `CN1CCCC1c1ccc(C(=O)N2CCc3ccccc3C2)s1` (stereo not given) | -26.8 | 1.754 |
| 10 | `Cc1ccc(NC(=O)C2CSCN2C(=O)c2cc[nH]n2)c(C)c1` (stereo not given) | 13.57 | -14.36 |
| 11 | `Cc1cnc(N2CCC3(CC2)CN(c2ccsc2)C(=O)CO3)nc1.O=C(O)C(F)(F)F` | 4.182 | -3.228 |
| 12 | `O=C(O)C(F)(F)F.[H][C@]12CCN(C(=O)c3ccc4ncccc4c3)C[C@@]1([H])OCCN(C(C)=O)C2` | 19.12 | -1.652 |
| 13 | `O=S(=O)(c1cc(F)ccc1F)n1cc(Cl)cn1` | -4.54 | -5.898 |
| 14 | `CCOCCC(=O)N1CCCN(c2ccccc2C)CC1` | 11.22 | 0.1732 |
| 15 | `[H][C@]12CN(Cc3nc(C)cs3)C[C@@]1([H])OCCN(S(C)(=O)=O)C2` | 20.2 | 17.95 |
| 16 | `N#CC1(C(=O)N2CCN(Cc3cscn3)CC2)CCCCC1` | -14.29 | 1.053 |
| 17 | `CCc1nc(CN2CCCC(N(C)CCn3cncn3)C2)no1` (stereo not given) | 3.71 | 0.292 |
| 18 | `CN1CC(=O)N(c2cccc(F)c2)CC12CCN(Cc1cncn1C)C2.O=C(O)C(F)(F)F.O=C(O)C(F)(F)F` (stereo not given) | -2.299 and 16.77 | -0.6772 |
| 19 | `[H][C@]12C[C@@H](CN(C)C)N(CC3CC3)[C@@]1([H])CCN(Cc1nccn1C)C2` | 27 | -9.291 |
| 20 | `CS(=O)(=O)c1cc(C(=O)NS(=O)(=O)Cc2ccc(F)cc2)ccc1Cl` | -6.304 | -2.947 |
| 21 | `[H][C@]12CC[C@@]3(N=C(CC)N(CC4CC4)C3=O)[C@@]1([H])CN(C(=O)NCC(C)C)C2` | 19.6 | -0.8621 |
| 22 | `O=C(NCc1nc(-c2ncccn2)no1)c1ccc(C2CCCO2)s1` (stereo not given) | -1.322 | -1.097 |
| 23 | `[H][C@]12CN(C(=O)c3cccn3C)CC[C@@]1(O)CCN(S(C)(=O)=O)C2` | -1.444 | 20.23 |
| 24 | `CC(C)NC(=O)Cn1cc(OCc2ccc(F)cc2)c(=O)cc1CO` | 16.33 | 3.983 |
| 25 | `O=C1CN(Cc2cn(CC3CCCN(C4CCSCC4)C3)nn2)CCN1` (stereo not given) | 4.781 | 3.154 |
| 26 | `CCc1ccccc1OC1CN(C(=O)c2ccnc(OC)c2)C1` | 5.656 | -2.912 |
| 27 | `Cc1nn(C)c(Cl)c1S(=O)(=O)N(C)C` | 13.02 | -0.04049 |
| 28 | `COCc1cc(CN(C)C(=O)CCC(=O)Nc2cc(C)ccc2F)n[nH]1` | -7.383 | 12.87 |
| 29 | `COc1ccc(NC(=O)c2cccc(OC)c2OC)cc1` | -24.63 | -2.952 |
| 30 | `CC(C)c1noc(CS(=O)(=O)CC(=O)NCc2ccccc2)n1` | 11.68 | -9.079 |
| 31 | `COc1ccc(CNC[C@H]2COCc3nc4cccnc4n32)cc1` | -27.29 | 2.291 |
| 32 | `CN(C)C(C(=O)NC1(CO)CCCC1)c1ccc(F)cc1` (stereo not given) | -5.082 | 2.126 |
| 33 | `CCn1ccc2ccnc(CC3CN(C(=O)c4ccc(F)cc4)C3)c21` | 39.57 | 7.364 |
| 34 | `Cc1cnn(C2CCCN(C(=O)c3cccc(-n4cnnn4)c3)C2)c1` (stereo not given) | 1.125 | -0.1565 |
| 35 | `COc1ccc(CN2CCC3(CC2)CC(c2cccnc2)CO3)cc1.O=C(O)C(F)(F)F.O=C(O)C(F)(F)F` (stereo not given) | 4.203 | 31.49 |
| 36 | `Cc1nc(N)sc1C(=O)N1Cc2ccccc2OC2(CCOCC2)C1` | 19.87 and -7.095 | 21.32 |
| 37 | `O=C1CN(CC2CC2)Cc2nc(NCCc3ccccn3)sc21` | 4.547 and 11.68 | -1.572 |
| 38 | `c1nc(N2CCCC(Cn3cncn3)C2)c2ccsc2n1` (stereo not given) | -7.348 | -14.25 |
| 39 | `CCS(=O)(=O)c1ccc(N2CCC(NC(=O)CC3CCCC3)CC2)cc1` | 22.19 | -11.54 |
| 40 | `CNCCNc1ccc(-c2nc(-c3cccc(OC)c3OC)no2)cn1` | 11.62 | 7.667 |
| 41 | `CC(=O)N[C@@H]1CN(C(=O)c2ccncc2)C[C@H]1c1ccc(C)cc1` | 34.52 | 8.935 |
| 42 | `CCOCC(=O)Nc1ncn(Cc2cccc(Br)c2)n1` | -20.49 | -0.8954 |
| 43 | `CNc1cc(C2CCCN2C(=O)c2ccc(=O)[nH]n2)ccn1.O=CO` (stereo not given) | -35.06 | -2.584 |
| 44 | `Cc1ccc(-n2cc(C(=O)N3CCCC(n4cccn4)C3)nn2)cc1` (stereo not given) | 27.48 | -2.17 |
| 45 | `O=C(c1cc(=O)c(OCc2ccccc2F)co1)N1CCCC1` | 19.41 and 6.221 | -7.189 |
| 46 | `COc1cccc([C@@H]2CCN(Cc3[nH]nc(C)c3Cl)C[C@H]2O)c1` | 7.351 | -21.66 |
| 47 | `Cc1nc(C2CCCN(C(=O)C(C)(C)n3cc(Cl)cn3)C2)no1` (stereo not given) | 10.69 | -1.856 |
| 48 | `Cc1ccc(N2CCCC(N(C)Cc3nnc(C4CC4)o3)C2)nn1` (stereo not given) | 30.93 | - |
| 49 | `CCn1ccnc1CN1CCCN(C(=O)c2scnc2C)CC1` | 32.34 | 2.807 |
| 50 | `CC(O)CN(C)C(=O)Nc1ccn(-c2cccc(C(F)(F)F)c2)n1` (stereo not given) | 16.97 | 1.073 |
| 51 | `O=C(Cn1nc2c(cc1=O)CCCC2)NC(Cc1ccccc1)C(=O)O` (stereo not given) | 5.954 | 8.188 |
| 52 | `CCc1nc(N2CCCC(CCOC)(C(=O)O)C2)ncc1C` (stereo not given) | 39.38 | 1.157 |
| 53 | `Cc1cc(C)n(CCCN(C)Cc2cn[nH]c2-c2ccc(F)cc2)n1` | 7.905 | 4.626 |
| 54 | `COc1ccc(-c2nnsc2C(=O)N2CCSCC2)cc1` | 7.538 | 4.353 |
| 55 | `COc1ccc(C(=O)N2C[C@@H](CN3CCOCC3)[C@@H](CO)C2)c(C)c1` | 32.37 | -0.3064 |
| 56 | `N#CCc1ccc(NC(=O)CNc2ccc(Br)cc2F)cc1` | -0.6505 | 14.42 |
| 57 | `COc1ccc(C(O)CNC(=O)NCc2csc(C)n2)cc1` (stereo not given) | 11.98 | 5.6 |
| 58 | `COc1cccc([C@@H](C)n2ccnc2-c2cc3n(n2)CCNC3)c1` | 12.66 | -2.512 |
| 59 | `OCCOc1ccc(NCc2cc(F)cc3cccnc23)cn1` | 20.33 | -1.622 |

For reference, 5 entries once more:

CCn1ccnc1CN1CCCN(C(=O)c2scnc2C)CC1 gave Leishmania in macrophages: 32.34%; Toxoplasma: 2.807%.
Cc1cnn(C2CCCN(C(=O)c3cccc(-n4cnnn4)c3)C2)c1 (stereo not given) gave Leishmania in macrophages: 1.125%; Toxoplasma: -0.1565%.
COc1cccc([C@@H]2CCN(Cc3[nH]nc(C)c3Cl)C[C@H]2O)c1 gave Leishmania in macrophages: 7.351%; Toxoplasma: -21.66%.
O=C(O)C(F)(F)F.O=C(c1c[nH]cn1)N1CCC(F)(F)C2(CCN(c3cnccn3)C2)C1 (stereo not given) gave Leishmania in macrophages: 10.85% and 9.792%; Toxoplasma: -6.433%.
COCc1cc(CN(C)C(=O)CCC(=O)Nc2cc(C)ccc2F)n[nH]1 gave Leishmania in macrophages: -7.383%; Toxoplasma: 12.87%.

Measurements from “University of Dundee, Small-Polar-MMV Screening Library” (2021), ChEMBL document CHEMBL3988442.